Data on 111 substances can be found in the supplement of paper PMC5949888.

Most values lie at the floor of the assay. Slopes are relative: functional sequences can read slightly below zero.

The subject of this series is Saccharomyces cerevisiae PS128 hsf1 delta, HSF1(1-493) fusion. The experiment in a line: growth estimate (transactivation domain function in HSF1 fusion, heat-shock survival) (a.u. (slope of normalised read count over time)); higher = stronger growth at 37°C, i.e. more transactivation activity. The note with it: library: random library.
Take CKRGHLYLLGVGRGHLVRQF: the growth estimate is below -0.25.
For KNCGRRSFKQRVTIVNPGLA, the growth estimate is below -0.25.
The result for EPKRVHISQIPISVRRASLR reads below -0.25; that for RGPA, below -0.25.
For ESGCNLSFRQNVAPRGGVSP, the growth estimate is below -0.25.
Consider SFPVIATIRIVGADGGGEG, for which the growth estimate was below -0.25.
The figure for GMRMHFFLGLRHGGKFEHRD is below -0.25; for ETAS it is below -0.25; for ESVRWNEEGRHFSRRVNE it is below -0.25.
The figure for LYHRTCVRSDRWQIAGCYWS is below -0.25.
As for ALVITIEPGRAGARK, the growth estimate was below -0.25.
The result for IATLDPGEHFYPRTNKHEGL reads below -0.25; that for GATRPSFSLAHANLFSESSS, below -0.25.
With TGSNRFGSGSWHCTAI, the growth estimate is below -0.25.
The figure for RIR is below -0.25; for KVCVPTLRCVLEDMGSVRSG it is below -0.25.
The result for TFACHIPHIIRVKGGVCVVS reads below -0.25; that for APDQAYVSGSCRTGIGEDVA, below -0.25.
Consider RQIAISDLRKTRCRIVASRM, for which the growth estimate was below -0.25.
The result for TQSWRQTTRCISFMLAVGGG reads below -0.25.
For QSTPGEKDGAPNWLHMRALV, the growth estimate was below -0.25.
IRDPKPALFIRGVSVLSATR: the growth estimate was below -0.25.
The result for GGSGKTKKFLGSPN reads below -0.25; that for TRLVGRSIPVLNFFYPLGSF, below -0.25.
The figure for LNSTGEAGIDHVSWVY is below -0.25; for RSGKSGGFSTAE it is below -0.25; for YRVGIWKQSHVEGLSW it is below -0.25.
With APMACGHLCPVTIRF, the growth estimate is below -0.25.
For LEDSISTSMSVVRIIGAAT, the growth estimate is below -0.25.
On to DRARFCREYYGSEMKHLAPV, for which the growth estimate was below -0.25.
The figure for ARDWEEFSRHRKFGSPSFLH is below -0.25.
The result for ISGVRARGKHCMSFRSQQ reads below -0.25; that for FRVLEPSCRKNPLARYGRSL, below -0.25; that for YSVFCPLGCVIPPGMCLFDF, below -0.25.
Consider TAQLFPASCGWRV, for which the growth estimate is below -0.25.
The figure for FEIERSARVIPVVWADATHN is below -0.25; for NFRFDLVFRATDDADVGAYV it is below -0.25.
The result for GRQEVNQGEQSLDQAMGAYN reads -0.112.
The result for SDEAQERII reads below -0.25; that for TRVVAGIYTGESGPSLLSER, below -0.25; that for LAGHVFNPRPMTYATDYCCS, below -0.25.
Consider AKYPGGRSDPGLLPAWSFAF, for which the growth estimate is -0.237.
The figure for NSAVHRLGTDRHFLA is below -0.25; for LVHRGRGRIIAIDYPLVAST it is below -0.25.
The result for NVSGCDTN reads below -0.25.
LPGGDEGPIKEGSDCGPDRA: the growth estimate was below -0.25.
The result for ASDKYDNEGQRVAGSYKLDN reads below -0.25.
For the substance EGSLEEGKMRTCCRCALRDE, the growth estimate was below -0.25.
QEAP: the growth estimate was below -0.25.
For SWL, the growth estimate is below -0.25.
SEHLLLLFGFFTLYKSAINL: the growth estimate is below -0.25.
The result for AVAIEYDTTDDGRGTVSNPD reads below -0.25; that for CAYLR, below -0.25; that for VQAGQAIWEYSTWKTNLFVA, below -0.25.
With SHCHDRSGGIIGVAPSTSRA, the growth estimate was below -0.25.
On to PPESKGRPIPRGKEKSKLIK, for which the growth estimate was below -0.25.
The result for VVTS reads below -0.25; that for NRMRRFLSAIQYLVDGVEHT, below -0.25; that for TGLTQIVGCLYRVWFISR, below -0.25.
The result for LSVVQALVASS reads below -0.25.
The result for VFLARALRYRTPVLDNASAP reads below -0.25.
On to STSNEFVVIGREYWFALVRP, for which the growth estimate is -0.194.
Consider SGSTYQ, for which the growth estimate was below -0.25.
The result for PQSPVTRRCPSLARRRSFMV reads below -0.25; that for AGLTGNGSGQEGLEPVVTPC, below -0.25.
The result for VEVVGYSGGSN reads below -0.25; that for LYLSADVLVLTPRK, below -0.25; that for VNLIAAKITSDRCALPQSYT, below -0.25.
The figure for RLHWVVGTSAKMAVF is below -0.25.
Take SKVML: the growth estimate was below -0.25.
As to IDLHPSTVVVRCIAARERID, the growth estimate was below -0.25.
The result for HDERSDPHDRGRWLRHVWRH reads below -0.25.
On to TSRWWSKGRESRSVSQRYQV, for which the growth estimate was below -0.25.
The result for DNIVFVLAYVPSDRTHVYGW reads below -0.25; that for AVNRNAMPRIKANTHFLTW, below -0.25; that for YGISGHVRHNLLNALFQHRH, below -0.25.
The figure for TEMILGQGGLIWGDPSEHGM is -0.219; for SWVRKGVINR it is below -0.25; for RAGNGAH it is below -0.25.
In the case of GSYRALILLDFTLWRLLGRT, the growth estimate was below -0.25.
The result for KQCLESVTGSVSRCRGGKSL reads below -0.25.
In the case of NEKTHYPPTELASSVESATG, the growth estimate was below -0.25.
As to EYKYY, the growth estimate was below -0.25.
As for RSPRGSFHISRGMNRCGHSE, the growth estimate is below -0.25.
The result for ACVEAW reads below -0.25.
The figure for VRSGFCCRNRLPGSRLHMWP is below -0.25; for RDYGTRVRLTILWSGRHF it is below -0.25; for GHLGCSLGRVRHNVNGGEDP it is below -0.25.
The result for KTCDRNKNNATP reads below -0.25.
As to SAF, the growth estimate was below -0.25.
In the case of GWAHTFDEV, the growth estimate was below -0.25.
Turning to IVSWNQLEGTKKDDVMLNSR, the growth estimate is below -0.25.
As for TQSAKLSDGRQAGKNTILEL, the growth estimate was -0.246.
The result for ARDVSALSVESRVFRAVMRK reads below -0.25; that for SKEGSANAHELVSRSLPTTG, below -0.25; that for WSRSWRHRIYDLYITCRKL, below -0.25.
As for VSPMGRLGLRLVIAHVLRPR, the growth estimate is below -0.25.
The result for PGKGRRV reads below -0.25; that for GYDASSGLPTVSHGQLYHRY, below -0.25.
Consider RNAVVRSNFRSARGRS, for which the growth estimate was below -0.25.
The figure for SFLREIPK is below -0.25; for AATKIVL it is below -0.25.
In the case of VWHQYSGYQLSC, the growth estimate is below -0.25.
The result for YLPTTRGSV reads below -0.25; that for VCLLRKPSVQVKSAMGTDPS, below -0.25; that for RVDTATHKVIGALVLLEASI, below -0.25.
In the case of IPSRDRISRVGRKLLLDGLI, the growth estimate is below -0.25.
As to VLPHWAPQENRWVLAPIATV, the growth estimate was below -0.25.
The figure for NMHFPRISSPCAWSRTCPRY is below -0.25; for AKAGQICFLV it is below -0.25; for IKK it is below -0.25.
